Test results from the supplement of paper PMC3334620.
Whole data set: some 33,000 sequences, median “E-score (-0.5 to 0.5)” near -8e-05, cut for the highest 2% near 0.23. Some of the results follow.

target: T1, Nrg2 (UniProt P38082); assay: PBM E-score (8-mer binding enrichment) (E-score (-0.5 to 0.5)); higher = stronger / more preferred TF binding; settings: protein concentration: 100 nM; construct: GST-full length
T1 sequence: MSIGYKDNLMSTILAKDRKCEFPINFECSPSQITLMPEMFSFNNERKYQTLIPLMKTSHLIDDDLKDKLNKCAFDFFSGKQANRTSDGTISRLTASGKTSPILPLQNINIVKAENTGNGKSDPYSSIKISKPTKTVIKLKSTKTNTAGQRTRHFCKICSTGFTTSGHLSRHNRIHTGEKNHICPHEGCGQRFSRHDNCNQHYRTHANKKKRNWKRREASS
Summary of the method: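 Universal all-10-mer Agilent arrays, fresh or stripped once, were converted to double-stranded form by primer extension. GST-tagged yeast transcription factors from PURExpress in vitro transcription/translation, full-length or DNA-binding domain only, were applied at about 100-200 nM and detected with fluorescent anti-GST. After masliner normalisation, the Universal PBM Analysis Suite scored each ungapped eight-base word together with its reverse complement by E-score.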

Sequence	PBM E-score
CCGGGCGA	-0.0266
AAGCAGGG	0.0257
GCATAATA	0.201
AGGACGGA	-0.14
AGCGTCGC	-0.0577
AAACCGAG	0.0125
ATGACACG	-0.0225
AAACTGTA	0.0982
GGTGGGGA	0.265
ACAATTTG	-0.11
AAACGGCG	0.221
CACTAAAC	0.0415
AGTGTAAT	0.0182
CCACGAGG	0.199
AAATATAA	0.161
CTGTCCAC	-0.0896
ACTACAGC	-0.271
ACGATGGA	0.0577
AAGTAGGC	0.0743
AGATGCCG	-0.00454
AGGGGATG	0.0874
ATTGATGA	0.149
CGGAACCA	0.294
CGGCCCAA	-0.0584
TTAGTAAA	0.169

Sequence	PBM E-score
ACCGCGAG	-0.0245
GACTAGCC	-0.271
TCTATAAA	-0.0201
CCCATGCA	0.066
ACAACTAT	0.105
CATCTTAC	-0.00815
AGCATAGG	-0.111
ACACTAGA	0.126
CGGATATC	0.125
ATAGTCGA	0.264
TACTTTAA	0.0217
ACAAGGGG	-0.0483
TTCACGAA	-0.0665
ATGGCTTA	-0.0228
ACCTATCG	0.15
GGCCGATA	-0.00019
ATCAAGAT	-0.0138
AGGGCTTC	-0.00488
GCCATTAC	0.0813
CCAATATA	-0.18
CATTCCGG	-0.00765
CAGGCCCC	-0.152
GCTATAGC	-0.378
CCCCAGTC	-0.207
CAGCAATA	0.0267

Sequence	PBM E-score
AAGCTAGG	0.0218
GCCCTTTA	-0.0329
GCTTGTTA	0.0654
ACCACCAT	5e-05
AATAAGCT	0.0272
GATTTAAA	-0.0907
CGTCTTGC	0.0795
TCGGGAGA	-0.148
AATCTTCT	-0.0104
AGAATCCG	0.0839
CGACTAGC	-0.0669
ATGCCCCA	-0.0566
AGACACGG	0.0453
CTGTCTTA	0.0262
CAAGGAGG	-0.0206
GGCACCCC	-0.139
AGCCGAGA	-0.0537
AACAGAGC	-0.0666
CTGCGAAG	-0.281
ATAGACGC	0.178
CCGCTGCA	-0.0301
ATCAGGAA	0.13
CTGTGACA	-0.062
AACATCTG	-0.161
CAACAACC	0.0175

Sequence	PBM E-score
CGAGCCAC	-0.236
CCTCTGAC	0.0885
CTAAGTTA	0.00065
AAGATCAT	0.0116
TCCTCAGA	-0.099
CGCGCAAG	0.109
ACATTTTG	0.0538
ACAGAAGA	0.129
GTACGCTA	-0.0055
ACCCACAT	0.0315
CCACAAAG	0.0649
CCGAATAA	0.14
ACGGTGTG	-0.1
CTGGGGAA	-0.113
AGAACCTC	-0.232
TAATTGTA	0.0762
CCGTAGCG	-0.176
ATCATCAC	-0.0296
ACTTCGCA	-0.0648
ACACCGTA	-0.0345
CAGGTAGC	-0.212
CCTCATCC	-0.204
CTACGGGC	-0.37
TCAAGTGA	-0.047
TGGGAAAA	0.0454

Six entries drawn at random from the list so far, as already listed:
Sequence	PBM E-score
ACACCGTA	-0.0345
TCCTCAGA	-0.099
AGAACCTC	-0.232
CCTCATCC	-0.204
TAATTGTA	0.0762
GTACGCTA	-0.0055

Additional results.

Sequence	PBM E-score
CAATGCGC	0.145
TCTCAGAA	-0.0951
AATATTGA	0.211
AAGCATTA	-0.0307
GACGTGCA	0.0768
CCCTACCC	0.00619
AATATTCG	0.177
AGGCCTCG	-0.235
AGATGACT	-0.0996
GCAAACGC	-0.00138
AAAAGAGG	-0.0519
CGACGCCG	-0.136
GAATTCGC	0.141
ATGCTCCA	0.0544
AAGGACGA	-0.0591
CAATCTCG	-0.0255
GACGTATC	-0.118
AGGTATAC	0.0544
ACCGGGCC	-0.0405
ACCGACAC	-0.0406
GCTTTGAC	-0.0203
TAGTAGGA	-0.042
TCCAACAA	-0.0146
ACTAACAA	0.098
CTCCATTA	-0.0503

Sequence	PBM E-score
CGTGCCAG	-0.201
AAGGTGAT	-0.0594
AGGCAGCA	0.192
CCTTAGAC	-0.209
ACCACAAA	0.0888
CCGACGAC	0.00776
AATATAAT	0.0957
ATCGTCCC	0.206
GTTGCCGA	-0.0807
AAGCGTCG	0.0195
GACCGAGA	0.169
AACCTCGC	0.142
CCCTCCAG	-0.101
TAACTTGA	-0.0171
GCCATCAA	-0.0366
CGTCTTCC	-0.14
CCTACGCA	-0.133
AGCCTACT	0.0296
AGTCGCTC	-0.0509
ATCTGAAC	-0.0161
ACTTCTGG	-0.18
CAGCATTC	0.00122
CATGACAC	0.164
CGATGCTA	0.0333
CAGGGTGA	-0.117

Sequence	PBM E-score
CGTGCGCA	0.049
CCCTAAGC	-0.161
CCAACATA	0.207
CAAGTCTG	-0.308
CTCTCATA	0.12
GTTCGGTA	0.0513
TGGCCGAA	-0.03
AACGGATG	-0.00493
CGTCTACA	-0.268
ACTTTGTG	0.164
GTTACATA	0.0456
ACGCGGGA	0.116
GCCTGCAC	-0.06
CGCCACGA	-0.217
ACCAAATA	0.207
CTTACTGA	0.0211
CGTTATGC	0.0998
CGGCCTAC	0.138
ACTTTGTA	-0.0538
CCCGATAG	-0.123
ATCTACAC	0.0466
CAATTCCA	-0.0703
CCCCTACC	-0.0827
ACAAAAAG	-0.0161
ATGCTGAC	-0.0874

Sequence	PBM E-score
GAAGTAGA	0.141
ACAAGCAT	0.111
AGCCACAG	-0.134
TCACTGCA	0.167
TAAACGGA	0.0853
CGATGCTC	-0.152
CGATACGA	-0.00856
ACTTTTAT	-0.0597
GGGTAATA	0.15
ATCATTTG	0.149
TAGCGTGA	0.0132
TGGGTACA	-0.0706
AATAAGAT	0.0228
CGGCTCGC	0.00599
TTAGCGAA	0.0524
CATTGAAG	-0.186
CAGCAAAC	0.0686
GATATGTA	0.0697
CCCTACTA	-0.0215
CCGACCAC	-0.0556
AAATTACT	0.123
CTGCTAGC	-0.337
CTGAATTA	0.201
AGCGCAAT	0.0477
AACTCTGA	0.171

Sequence	PBM E-score
AGATCTTG	-0.0233
ACTAGGAC	-0.00051
GAAAGTGA	-0.0429
AACCAGAA	0.0493
AGGCATAA	0.0447
CTGCACTA	0.108
CAATATAG	0.131
CAGAAAGC	0.0226
ACGTCGAA	0.0356
GGTTTAAA	-0.0983
AAGTCCGT	-0.185
GTGCACAA	-0.0644
AGTACCGC	-0.0116
ATGGTCGG	-0.0431
ATTGTCTG	0.0469
AGCGACCG	-0.134
AACGGCGG	-0.0346
CAACAGGG	0.312
CTTGTTCA	0.0002
AAAGTATA	0.0838
ACAGTGGG	-0.0812
CCGTACGG	-0.142
ATAACGAA	0.187
CAAGGTTA	0.0225
CAGACCAA	0.0347

Sequence	PBM E-score
ACCTCCGC	0.00243
CAAGCACA	-0.17
AATAATTG	-0.0103
GTCGTGAA	-0.244
TGCCAGCA	-0.00651
GCGGTACC	-0.048
GAATTAGC	-0.00932
AACACACA	0.194
TGCGCAAA	0.1
AGAAGTAC	-0.0369
AAAGTAAT	0.0873
GAGATCAC	-0.0525
TCACAGCA	0.106
CCGATAGA	-0.0479
CAACAACG	-0.0956
CCTTTAGA	-0.136
CAGTAAAA	0.0186
ACGGTATC	0.123
ATCGTGAA	-0.0316
CCGTGGTA	-0.245
CCAGAAAA	0.0813
CTAATGAC	-0.125
AACGGCCC	-0.077
CATCATAA	0.0511
GCAATAGC	0.133

Sequence	PBM E-score
CTTCTTCA	-0.205
GGTCGACC	0.221
ATCAGTAA	0.0691
CGCAATGA	0.0431
CATGCCCG	-0.0456
GCAAAATA	0.0973
TAAGAATA	-0.0925
ATGCGTCG	-0.0307
ACAGAGTG	0.00388
AGAATAAA	0.112
AGGGACAT	0.301
GACGGCTA	-0.105
GTGCCTAA	-0.17
AATGATAT	0.187
AGTCCTGC	-0.194
CTGAGCAC	-0.0285
CCCCCTGC	-0.303
AACTATCT	0.122
AACTGAAT	-0.0545
CTCGTCGA	0.121
GCCTCCCC	-0.12
AAGGGGTC	0.239
GCAGACGC	0.0055
GAGGTACA	-0.0653
CTATTCGC	0.0444

Sequence	PBM E-score
GTAATCAA	0.181
CAACTTGG	0.116
AGGGTGAG	-0.137
AGAGTACT	0.00951
CGACATTC	0.0567
ATATCCTC	0.155
CTATATCC	-0.025
GACCTTAA	-0.11
AGGGTGAC	-0.0626
CGGCAAGC	-0.0117
CCGCACAG	0.0155
ATTCATAA	0.075
AGGCAATG	0.0339
CTCGTGCC	-0.00919
CCCTGGCG	0.19
CTGCTGGA	0.0147
CCATGACA	0.0793
ACAAGCCA	0.00278
CAGTATCG	-0.00531
ATAAACTC	0.11
ACCTATTA	0.0948
GAAGTCCC	-0.0916
GACGGGAA	0.00844
AGATTTCG	0.0985
AGAGTTGA	-0.073

Sequence	PBM E-score
CATTTCTA	-0.00265
GAACCCAC	0.109
ACCGGCCG	0.0168
TGTACCAA	-0.0629
GTGACCAA	0.118
CTCTGGCC	-0.0755
ATGATACG	0.0763
ATTGGCTA	0.0695
GTAACGTA	-0.0805
CTTTATCC	-0.0523
CTCGGCAA	-0.017
ACCGAAGA	0.0165
CAAGCAAC	0.0328
AATTCTAG	-0.027
AATCAATT	0.213
AGCTAGCG	0.00875
ATACGTCC	-0.148
AGGCACTA	-0.015
AGGATACC	-0.00401
AGTTTAGA	0.0577
ACAGATCC	0.033
ACAAGTCG	-0.201
AGGTGGAA	-0.0778
CCTATAAG	-0.0605
AAACACGT	-0.155

Some of the entries so far, in markdown:

| Sequence | PBM E-score |
| --- | --- |
| ATACGTCC | -0.148 |
| AGGCACTA | -0.015 |
| AGGATACC | -0.00401 |
| AGTTTAGA | 0.0577 |
| ACAGATCC | 0.033 |
| ACAAGTCG | -0.201 |
| AGGTGGAA | -0.0778 |

Carrying on:

Sequence	PBM E-score
ACACCTTG	-0.0415
AACTCCCA	0.0924
AGGCCTAA	0.137
ATAATATG	0.198
CCGTTTTC	0.171
CCCCTGTC	-0.151
ACCTTGTA	-0.0587
GTCGGTGA	-0.137
GATCCCTA	0.017
CACGAAAA	0.116
CAAAACTA	0.107
AATCCTCA	0.0177
AAGCTGCC	-0.0372
CAACCGTA	-0.296
AAATAGCG	0.0976
GGATCGAA	-0.0362
CGCTATCA	-0.0404
GACGCACC	-0.00744
CCGAGAAC	0.0941

Part of the list above, comma-delimited:
Sequence,PBM E-score
ACCTTGTA,-0.0587
GTCGGTGA,-0.137
